Reference: article PMC6158461
No constants are given. Whether binding was seen depends on the method and setting. Binding seen in cells or lysates may run through a third protein. Here binding means that the protein was enriched with, or labelled near, the bait; the list need not be complete. For some assays here: Where a sequence is shown, tags or fusion partners need not be part of it.

The chains behind the UniProt entries cited, without tags or fusion partners. Where a name states a change or a piece, a line headed by the entry shows the natural chain unless it says otherwise.
UniProt O54439: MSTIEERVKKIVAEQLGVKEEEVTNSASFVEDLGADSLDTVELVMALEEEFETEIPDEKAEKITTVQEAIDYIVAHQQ
UniProt Q9HYR1: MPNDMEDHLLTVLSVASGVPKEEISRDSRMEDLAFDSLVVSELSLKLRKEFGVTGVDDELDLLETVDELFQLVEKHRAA
UniProt P23747: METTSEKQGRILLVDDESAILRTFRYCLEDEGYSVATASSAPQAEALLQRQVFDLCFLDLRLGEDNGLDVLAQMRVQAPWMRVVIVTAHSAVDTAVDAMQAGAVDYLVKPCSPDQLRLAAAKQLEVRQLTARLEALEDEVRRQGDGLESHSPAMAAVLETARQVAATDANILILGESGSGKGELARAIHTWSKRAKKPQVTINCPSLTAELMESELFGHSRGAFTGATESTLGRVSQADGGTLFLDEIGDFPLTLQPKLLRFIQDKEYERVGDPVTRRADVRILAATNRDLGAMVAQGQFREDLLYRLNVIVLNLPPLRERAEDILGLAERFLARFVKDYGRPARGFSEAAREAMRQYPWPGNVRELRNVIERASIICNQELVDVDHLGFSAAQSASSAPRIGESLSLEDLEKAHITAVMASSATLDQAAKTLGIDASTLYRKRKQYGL
UniProt Q9HXI8: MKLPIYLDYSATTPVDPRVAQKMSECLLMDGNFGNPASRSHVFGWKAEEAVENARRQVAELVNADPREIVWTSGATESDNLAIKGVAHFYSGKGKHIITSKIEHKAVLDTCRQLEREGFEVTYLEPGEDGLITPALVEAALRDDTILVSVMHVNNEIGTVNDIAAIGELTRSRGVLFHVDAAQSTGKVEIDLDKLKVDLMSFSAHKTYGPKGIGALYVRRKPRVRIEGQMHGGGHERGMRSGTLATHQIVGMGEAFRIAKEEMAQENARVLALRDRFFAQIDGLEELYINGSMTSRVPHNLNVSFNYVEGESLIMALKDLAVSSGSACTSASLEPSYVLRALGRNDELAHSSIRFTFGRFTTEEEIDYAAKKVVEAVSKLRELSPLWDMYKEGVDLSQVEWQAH
UniProt P53593: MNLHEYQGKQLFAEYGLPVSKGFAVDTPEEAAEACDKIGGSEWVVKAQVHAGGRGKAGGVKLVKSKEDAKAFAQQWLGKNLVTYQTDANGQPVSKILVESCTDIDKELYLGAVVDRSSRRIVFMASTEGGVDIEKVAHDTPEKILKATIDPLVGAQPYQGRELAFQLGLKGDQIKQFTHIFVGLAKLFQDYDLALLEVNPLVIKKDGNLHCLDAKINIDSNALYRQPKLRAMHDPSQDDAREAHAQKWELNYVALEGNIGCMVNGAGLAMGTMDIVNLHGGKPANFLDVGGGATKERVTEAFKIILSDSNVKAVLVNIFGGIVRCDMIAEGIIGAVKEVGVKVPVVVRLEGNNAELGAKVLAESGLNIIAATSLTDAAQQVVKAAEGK
UniProt P09591: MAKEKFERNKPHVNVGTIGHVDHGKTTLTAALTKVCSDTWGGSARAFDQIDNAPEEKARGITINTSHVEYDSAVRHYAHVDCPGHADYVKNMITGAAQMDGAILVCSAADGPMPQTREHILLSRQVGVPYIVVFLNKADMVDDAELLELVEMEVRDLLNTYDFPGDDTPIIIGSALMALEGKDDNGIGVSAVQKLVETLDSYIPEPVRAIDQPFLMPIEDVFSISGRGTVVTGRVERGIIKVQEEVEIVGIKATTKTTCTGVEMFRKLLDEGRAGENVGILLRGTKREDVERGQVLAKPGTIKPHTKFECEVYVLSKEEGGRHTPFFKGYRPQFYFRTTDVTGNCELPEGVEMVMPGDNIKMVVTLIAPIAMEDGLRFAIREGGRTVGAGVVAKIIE

Key:
Test in all cases: affinity purification with mass spectrometry; tandem (sequential peptide) affinity purification of chromosomally SPA-tagged ACPs from stationary-phase PAO1 lysates: anti-FLAG M2 magnetic beads, 0.1% Triton X-100, TEV cleavage, calmodulin Sepharose, 4°C; untagged PAO1 as control; only proteins identified in both of two experiments reported
[1] = target: AcpP with C-terminal SPA tag (strain CW20) (P. aeruginosa) (UniProt O54439)
[2] = target: Acp3 with C-terminal SPA tag (strain CW21) (P. aeruginosa) (UniProt Q9HYR1)
[3] = target: T1, Acp1 with C-terminal SPA tag (strain CW22) (P. aeruginosa) (UniProt O52658)
T1 sequence: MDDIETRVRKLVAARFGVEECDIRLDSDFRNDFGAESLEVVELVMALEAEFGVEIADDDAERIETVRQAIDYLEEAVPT

Substance	binding [1]	binding [2]	binding [3]
AlgB, alginate biosynthesis transcriptional regulator (from UniProt P23747 1-449)	binds		
IscS, cysteine desulfurase (from UniProt Q9HXI8 1-404) (enzyme)	binds	binds	
SucC, succinyl-CoA ligase (from UniProt P53593 1-388) (enzyme)		binds	
Tuf1, elongation factor Tu (from UniProt P09591 1-397)			binds
